Reference: patent publication US20230056252A1
These are yes or no findings as the source states them, for the method shown. Some binding calls cover weakened binding; strength is not graded here.

The chains behind the UniProt entries cited, without tags or fusion partners. Where a name states a change or a piece, a line headed by the entry shows the natural chain unless it says otherwise.
UniProt P07766: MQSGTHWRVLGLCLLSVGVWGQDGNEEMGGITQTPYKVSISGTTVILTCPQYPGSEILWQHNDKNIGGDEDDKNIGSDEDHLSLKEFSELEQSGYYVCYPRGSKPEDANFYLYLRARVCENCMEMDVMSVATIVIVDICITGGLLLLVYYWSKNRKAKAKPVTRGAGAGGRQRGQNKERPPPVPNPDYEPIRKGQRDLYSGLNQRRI

Target: human CD3 on the surface of primary human T cells (CD4+ and CD8+ T cells, PBMCs) (human) (UniProt P07766)
Assay: flow cytometry competition with murine SP34-AF488 on primary human T cells

Row | Binder | binding
1 | huSP34.2.1 Fab-HF (Fab, V domains shown) VH: EVQLVESGGGLVQPGGSLRLSCAASGFTFSTYAMNWVRQAPGKGLEWVGRIRSKYNNYATYYAASVKGRFTISRDDSKNSLYLQMNSLKTEDTAMYYCVRHGNFGNSYVSWFAVWGQGTLVTVSS VL: QAVVTQEPSLTVSPGGTVTLTCRSSTGAVTTSNYANWVQQKPGQAPRGLIGGTNKRAPWTPARFSGSLIGDKAALTLSGAQPEDEAEYYCALWYSNLWVFGGGTKLTVL | binds
2 | huSP34.4.6 Fab-HF (Fab, V domains shown) VH: EVQLVESGGGLVQPGGSLRLSCAASGFTFSTYAMNWVRQAPGKGLEWVGRIRSKYNNYATYYAASVKGRFTISRDDSKNSLYLQMNSLRTEDTAVYYCVRHGNFGHSYVSWFAVWGQGTLVTVSS VL: QAVVTQPPSLTVSPGGTVTLTCGSSTGAVTTGHYANWVQQKPGQAPRGLIGGTSNRAPGVPARFSGSLSGGKAALTISGAQPEDEAEYYCALWYSARWVFGGGTKLTVL | binds
3 | huSP34.3.5 Fab-HF (Fab, V domains shown) VH: EVQLVESGGGLVQPGGSLRLSCAASGFTFNTYAMNWVRQAPGKGLEWVGRIRSKYNNYATYYADSVKGRFTISRDDSKNSLYLQMNSLRTEDTAVYYCVRHGNFGHSYVSWFAYWGQGTLVTVSS VL: QAVVTQEPSLTVSPGGTVTLTCGSSTGAVTTGHYANWVQQKPGQAPRGLIGGTSNRAPWTPARFSGSLLGGKAALTLSGAQPEDEAEYYCALWYSARWVFGGGTKLTVL | binds
4 | huSP34.2.2 Fab-HF (Fab, V domains shown) VH: EVQLVESGGGLVQPGGSLRLSCAASGFTFSTYAMNWVRQAPGKGLEWVGRIRSKYNNYATYYAASVKGRFTISRDDSKNSLYLQMNSLKTEDTAMYYCVRHGNFGNSYVSWFAVWGQGTLVTVSS VL: QAVVTQEPSLTVSPGGTVTLTCGSSTGAVTTSNYANWVQQKPGQAPRGLIGGTSNRAPWTPARFSGSLLGGKAALTLSGAQPEDEAEYYCALWYSNLWVFGGGTKLTVL | binds
5 | huSP34.3.4 Fab-HF (Fab, V domains shown) VH: EVQLVESGGGLVQPGGSLRLSCAASGFTFNTYAMNWVRQAPGKGLEWVGRIRSKYNNYATYYADSVKGRFTISRDDSKNSLYLQMNSLRTEDTAVYYCVRHGNFGHSYVSWFAYWGQGTLVTVSS VL: QAVVTQEPSLTVSPGGTVTLTCGSSTGAVTTSHYANWVQQKPGQAPRGLIGGTSKRAPWTPARFSGSLLGGKAALTLSGAQPEDEAEYYCALWYSALWVFGGGTKLTVL | binds
6 | huSP34.4.1 Fab-HF (Fab, V domains shown) VH: EVQLVESGGGLVQPGGSLRLSCAASGFTFSTYAMNWVRQAPGKGLEWVGRIRSKYNNYATYYAASVKGRFTISRDDSKNSLYLQMNSLRTEDTAVYYCVRHGNFGHSYVSWFAVWGQGTLVTVSS VL: QAVVTQEPSLTVSPGGTVTLTCRSSTGAVTTSNYANWVQQKPGQAPRGLIGGTNKRAPWTPARFSGSLIGDKAALTLSGAQPEDEAEYYCALWYSNLWVFGGGTKLTVL | binds

Next, values leading:

Row | binding | Binder
7 | binds | huSP34.3.2 Fab-HF (Fab, V domains shown) VH: EVQLVESGGGLVQPGGSLRLSCAASGFTFNTYAMNWVRQAPGKGLEWVGRIRSKYNNYATYYADSVKGRFTISRDDSKNSLYLQMNSLRTEDTAVYYCVRHGNFGHSYVSWFAYWGQGTLVTVSS VL: QAVVTQEPSLTVSPGGTVTLTCGSSTGAVTTSNYANWVQQKPGQAPRGLIGGTSNRAPWTPARFSGSLLGGKAALTLSGAQPEDEAEYYCALWYSNLWVFGGGTKLTVL
8 | binds | huSP34.2.6 Fab-HF (Fab, V domains shown) VH: EVQLVESGGGLVQPGGSLRLSCAASGFTFSTYAMNWVRQAPGKGLEWVGRIRSKYNNYATYYAASVKGRFTISRDDSKNSLYLQMNSLKTEDTAMYYCVRHGNFGNSYVSWFAVWGQGTLVTVSS VL: QAVVTQPPSLTVSPGGTVTLTCGSSTGAVTTGHYANWVQQKPGQAPRGLIGGTSNRAPGVPARFSGSLSGGKAALTISGAQPEDEAEYYCALWYSARWVFGGGTKLTVL
9 | binds | huSP34.3.1 Fab-HF (Fab, V domains shown) VH: EVQLVESGGGLVQPGGSLRLSCAASGFTFNTYAMNWVRQAPGKGLEWVGRIRSKYNNYATYYADSVKGRFTISRDDSKNSLYLQMNSLRTEDTAVYYCVRHGNFGHSYVSWFAYWGQGTLVTVSS VL: QAVVTQEPSLTVSPGGTVTLTCRSSTGAVTTSNYANWVQQKPGQAPRGLIGGTNKRAPWTPARFSGSLIGDKAALTLSGAQPEDEAEYYCALWYSNLWVFGGGTKLTVL
10 | binds | huSP34.3.6 Fab-HF (Fab, V domains shown) VH: EVQLVESGGGLVQPGGSLRLSCAASGFTFNTYAMNWVRQAPGKGLEWVGRIRSKYNNYATYYADSVKGRFTISRDDSKNSLYLQMNSLRTEDTAVYYCVRHGNFGHSYVSWFAYWGQGTLVTVSS VL: QAVVTQPPSLTVSPGGTVTLTCGSSTGAVTTGHYANWVQQKPGQAPRGLIGGTSNRAPGVPARFSGSLSGGKAALTISGAQPEDEAEYYCALWYSARWVFGGGTKLTVL
